Assay results reported in article PMC12412656.
No constants are given. Whether binding was seen depends on the method and setting. For some of these results: Binding seen in cells or lysates may run through a third protein. Some results given as binding are weak or reduced against the parent protein; the word gives no strength.

The chains behind the UniProt entries cited, without tags or fusion partners.
UniProt P26039: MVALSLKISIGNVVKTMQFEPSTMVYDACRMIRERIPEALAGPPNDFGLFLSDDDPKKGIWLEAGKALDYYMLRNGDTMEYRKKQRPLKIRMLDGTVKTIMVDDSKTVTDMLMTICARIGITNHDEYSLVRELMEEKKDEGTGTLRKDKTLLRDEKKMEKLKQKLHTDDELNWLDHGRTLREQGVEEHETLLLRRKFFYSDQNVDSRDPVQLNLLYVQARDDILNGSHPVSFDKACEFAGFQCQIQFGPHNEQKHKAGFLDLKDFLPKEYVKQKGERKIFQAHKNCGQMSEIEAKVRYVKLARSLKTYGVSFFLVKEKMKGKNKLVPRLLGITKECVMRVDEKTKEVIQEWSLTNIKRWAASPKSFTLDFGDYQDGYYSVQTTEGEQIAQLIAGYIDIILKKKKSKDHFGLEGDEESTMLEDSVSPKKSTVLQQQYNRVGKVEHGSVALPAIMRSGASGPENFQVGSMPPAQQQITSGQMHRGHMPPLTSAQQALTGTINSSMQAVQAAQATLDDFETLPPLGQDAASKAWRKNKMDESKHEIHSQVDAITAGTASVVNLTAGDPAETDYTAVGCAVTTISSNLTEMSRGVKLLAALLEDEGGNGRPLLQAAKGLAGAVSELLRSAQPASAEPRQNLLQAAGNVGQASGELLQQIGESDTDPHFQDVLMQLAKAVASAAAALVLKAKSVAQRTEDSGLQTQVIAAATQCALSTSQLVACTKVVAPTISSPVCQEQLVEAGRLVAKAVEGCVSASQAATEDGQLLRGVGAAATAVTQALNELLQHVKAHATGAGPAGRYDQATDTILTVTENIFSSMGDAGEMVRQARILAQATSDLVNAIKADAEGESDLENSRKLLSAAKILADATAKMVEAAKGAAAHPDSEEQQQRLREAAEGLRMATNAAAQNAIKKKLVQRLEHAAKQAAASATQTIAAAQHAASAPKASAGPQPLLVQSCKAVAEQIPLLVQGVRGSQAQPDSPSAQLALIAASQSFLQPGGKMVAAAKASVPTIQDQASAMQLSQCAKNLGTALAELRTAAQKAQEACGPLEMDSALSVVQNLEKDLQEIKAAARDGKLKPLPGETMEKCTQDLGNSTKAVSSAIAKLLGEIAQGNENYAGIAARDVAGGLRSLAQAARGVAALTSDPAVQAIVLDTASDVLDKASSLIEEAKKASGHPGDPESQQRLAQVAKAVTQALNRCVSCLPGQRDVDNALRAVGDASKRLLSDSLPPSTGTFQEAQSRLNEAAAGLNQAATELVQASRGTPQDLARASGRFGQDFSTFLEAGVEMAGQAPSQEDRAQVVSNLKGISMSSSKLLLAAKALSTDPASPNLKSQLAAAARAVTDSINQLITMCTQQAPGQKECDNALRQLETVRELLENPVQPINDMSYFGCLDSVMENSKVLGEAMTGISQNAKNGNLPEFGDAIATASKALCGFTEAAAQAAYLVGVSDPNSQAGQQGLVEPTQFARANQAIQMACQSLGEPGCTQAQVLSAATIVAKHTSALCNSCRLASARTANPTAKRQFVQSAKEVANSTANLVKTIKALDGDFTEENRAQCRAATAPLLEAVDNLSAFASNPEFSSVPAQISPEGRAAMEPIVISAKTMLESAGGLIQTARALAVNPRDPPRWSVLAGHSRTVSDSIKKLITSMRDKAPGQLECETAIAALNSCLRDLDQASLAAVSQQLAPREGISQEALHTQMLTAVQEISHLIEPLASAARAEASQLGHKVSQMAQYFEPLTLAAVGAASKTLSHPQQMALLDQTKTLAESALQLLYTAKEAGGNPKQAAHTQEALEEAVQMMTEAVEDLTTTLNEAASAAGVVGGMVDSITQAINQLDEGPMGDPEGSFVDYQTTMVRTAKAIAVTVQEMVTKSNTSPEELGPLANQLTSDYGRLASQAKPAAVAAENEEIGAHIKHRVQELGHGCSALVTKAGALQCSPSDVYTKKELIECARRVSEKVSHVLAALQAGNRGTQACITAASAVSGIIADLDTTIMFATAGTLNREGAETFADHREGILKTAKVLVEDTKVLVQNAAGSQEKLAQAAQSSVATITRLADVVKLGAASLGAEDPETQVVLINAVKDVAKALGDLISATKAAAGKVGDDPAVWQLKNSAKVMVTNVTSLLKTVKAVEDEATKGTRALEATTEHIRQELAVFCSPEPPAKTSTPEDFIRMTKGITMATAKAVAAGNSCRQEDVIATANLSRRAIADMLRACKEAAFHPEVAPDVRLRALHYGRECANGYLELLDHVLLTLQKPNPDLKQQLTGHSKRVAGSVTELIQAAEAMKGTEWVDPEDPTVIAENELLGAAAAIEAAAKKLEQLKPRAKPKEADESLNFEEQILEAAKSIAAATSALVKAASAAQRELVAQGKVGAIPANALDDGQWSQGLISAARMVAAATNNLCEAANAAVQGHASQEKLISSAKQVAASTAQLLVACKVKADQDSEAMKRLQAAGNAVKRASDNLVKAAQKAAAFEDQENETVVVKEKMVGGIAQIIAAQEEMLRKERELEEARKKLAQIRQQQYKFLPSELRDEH

How the values were obtained:
[1] = target: talin 1, endogenous, mouse heart sections (mouse (endogenous in heart sections)) (UniProt P26039); experiment: proximity ligation; in situ Duolink PLA on heart sections of MLP knockout mice and WT controls; antibody pairs DLC1 (mouse)/talin 1 (rabbit) and RIAM (rabbit)/talin 1 (mouse)
[2] = target: talin 1, endogenous, mouse heart sections (mouse (endogenous in heart sections)) (UniProt P26039); experiment: condition: only in WT hearts (interaction seen in MLP knockout hearts); proximity ligation; in situ Duolink PLA on heart sections of WT mice only; antibody pair RIAM (rabbit)/talin 1 (mouse)
[3] = target: T1, DLC1 TBS (465-489C) synthetic peptide, fluorescein-labelled; experiment: fluorescence polarisation; negative control without R7R8: uncomplexed DLC1 TBS-F titrated with unlabeled RIAM TBS1 (up to 160 μM); both purified
T1 sequence (peptide, fluorescein coupled via the terminal (C-terminal, non-native) cysteine): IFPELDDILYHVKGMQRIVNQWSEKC

B1: DLC1, endogenous, mouse heart sections (protein, UniProt Q9R0Z9 1-1092)
chain: MCRDEPDTMILTQIEAKEACDWLRVTGFPQYAQLYEDLLFPVDIALVKREHDFLDRDAIEALCRRLNTLNKCAVMKLEISPHRKRSEDSDEDEPCAISGKWTFQRDSKRWSRLEEFDVFFPKQDPIPGSPDNSRLQSATSHESMLTDLSEHQEVASVRSLSSTSSSVPTHAAHSGDATTPRTNSVISVCSSGHFVGNDDSFSSLPSPKELSSFSFSMKGHHEKNTKSKTRSLLKRMESLKLKGSHHSKHKAPSKLGLIISAPILQEGMDEAKLKQLNCVEISALNGNHINVPMVRKRSVSNSTQTSSSSSQSETSSAVSTPSPVTRTRSLSTCNKRVGMYLEGFDPFSQSTLNNVTEQNYKNRESYPEDTVFYIPEDHKPGTFPKALSHGSFCPSGNSSVNWRTGSFHGPGHLSLRRENSHDSPKELKRRNSSSSLSSRLSIYDNVPGSILYSSSGELADLENEDIFPELDDILYHVKGMQRIVNQWSEKFSDEGDSDSALDSVSPCPSSPKQIHLDVDHDRRTPSDLDSTGNSLNEPEEPTDIPERRDSGVGASLTRCNRHRLRWHSFQSSHRPSLNSVSLQINCQSVAQMNLLQKYSLLKLTALLEKYTPSNKHGFSWAVPKFMKRIKVPDYKDRSVFGVPLTVNVQRSGQPLPQSIQQAMRYLRNHCLDQVGLFRKSGVKSRIQALRQMNESAEDNVNYEGQSAYDVADMLKQYFRDLPEPLMTNKLSETFLQIYQYVPKDQRLQAIKAAIMLLPDENREVLQTLLYFLSDVTAAVKENQMTPTNLAVCLAPSLFHLNTLKRENSSPRVMQRKQSLGKPDQKDLNENLAATQGLAHMIAECKKLFQVPEEMSRCRNSYTEQELKPLTLEALGHLNSDQPADYRHFLQDCVDGLFKEVKEKFKGWVSYPTSEQADLSYKKVSEGPPLRLWRSTIEVPAAPEEILKRLLKEQHLWDVDLLDSKVIEILDSQTEIYQYVQNSMAPHPARDYVVLRTWRTNLPRGACALLLTSVDHDRAPVAGVRVNVLLSRYLIEPCGSGKSKLTYMCRADLRGHMPEWYSKSFGHLCAAEVVKIRDSFSNQNTESKDTRSR
binding [1]: binds

B2: RIAM, endogenous, mouse heart sections (protein, UniProt Q8R5A3 1-670)
chain: MGESNEDIDQMFSTLLGEMDLLTQSLGVDTLPPPDPNPPREEFNYTVGFKDLNESLNALEDQDLDALMADLVADISEAEQRTIQAQKESSQNQDRFALLRASDGQGTASGGYGASAAAIDVSHHEEALPPPPVEPMLDLLPPPPPPPPPELLSKEEEEAKAKADKIKLALEKLKEAKVKKLVVKVHMDDSSTKSLMVDERQLARDVLDNLFEKTHCDCNVDWCLYEIYPELQIERVFEDHENVVEVLSDWTRDTENKVLFLEKEERYAVFKNPQNFYLDNKGKKENKETNEKMNAKNKEYLLEESFCGTSIIVPELEGALYLKEDGKKSWKRRYFLLRASGIYYVPKGKTKTSRDLACFIQFENVNIYYGIQCKMKYKAPTDHCFVLKHPQIQKESQYIKYLCCDDARTLSQWVMGIRIAKYGKTLYDNYQRAVARAGLASRWTNLGTVGTPMPAQPSTVSSGLKTGTSQPNGQMPQAIPSAGPPLQEAQTQIETTKDEKQGLGNHSPGATRENHRPKSSLPPPPPPVRRSSDTCGSPALPSKVKGPGTCTFPHPPENFLPPPPPPPPEEDNSGLLPPPPPPPYLEEPPDFVPPPPPPAAVEDSALPPPPPPPPCLSQEITKSSPLPPKKPLVPPKRQENQGLPGAPGNSEQDFMSDLMKALQKKRGNIP
binding [1]: binds
binding [2]: no binding

SEDIDQMFSTLLGEMDLLTQSLGVDTC [RIAM TBS1 (4-30C) synthetic peptide, unlabeled]
binding [3]: no binding (tested: 160 μM)
